Measured values: the supplement of paper PMC10849652
This is one part of the list.

Sequences of proteins named here, by UniProt entry; tags and fusion partners are left off. A change or cut given only in a name is not applied to a line headed by its entry.
UniProt Q8IUR0, whole entry, looked up: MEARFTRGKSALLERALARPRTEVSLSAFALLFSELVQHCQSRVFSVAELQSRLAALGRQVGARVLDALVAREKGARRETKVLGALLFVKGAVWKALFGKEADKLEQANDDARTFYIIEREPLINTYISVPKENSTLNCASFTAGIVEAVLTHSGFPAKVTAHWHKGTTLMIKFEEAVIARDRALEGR
UniProt Q96F44: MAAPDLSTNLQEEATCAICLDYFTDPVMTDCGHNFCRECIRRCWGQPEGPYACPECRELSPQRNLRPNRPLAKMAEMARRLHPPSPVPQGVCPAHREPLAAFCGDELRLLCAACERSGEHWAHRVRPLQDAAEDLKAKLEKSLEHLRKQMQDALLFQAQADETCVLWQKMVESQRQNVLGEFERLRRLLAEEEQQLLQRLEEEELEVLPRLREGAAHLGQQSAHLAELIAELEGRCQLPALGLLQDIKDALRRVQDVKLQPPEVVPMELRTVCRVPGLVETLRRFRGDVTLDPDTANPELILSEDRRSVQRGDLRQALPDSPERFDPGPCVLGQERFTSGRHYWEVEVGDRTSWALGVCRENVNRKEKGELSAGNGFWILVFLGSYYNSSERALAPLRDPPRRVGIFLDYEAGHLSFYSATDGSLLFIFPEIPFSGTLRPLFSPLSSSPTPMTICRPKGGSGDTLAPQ
UniProt Q9UJA5: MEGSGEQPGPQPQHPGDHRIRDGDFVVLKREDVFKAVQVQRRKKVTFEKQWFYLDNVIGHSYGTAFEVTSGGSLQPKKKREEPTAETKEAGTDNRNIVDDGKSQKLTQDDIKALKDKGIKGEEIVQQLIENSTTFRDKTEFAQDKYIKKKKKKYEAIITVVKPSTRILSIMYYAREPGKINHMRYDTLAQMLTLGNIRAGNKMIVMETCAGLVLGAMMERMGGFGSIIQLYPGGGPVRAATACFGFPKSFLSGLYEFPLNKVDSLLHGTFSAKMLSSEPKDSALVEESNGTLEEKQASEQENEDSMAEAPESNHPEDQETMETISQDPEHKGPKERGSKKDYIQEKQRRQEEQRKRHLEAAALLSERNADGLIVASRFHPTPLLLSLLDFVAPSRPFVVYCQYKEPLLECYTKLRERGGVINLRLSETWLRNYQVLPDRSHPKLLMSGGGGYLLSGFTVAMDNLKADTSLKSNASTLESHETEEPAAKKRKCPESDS
UniProt Q13049: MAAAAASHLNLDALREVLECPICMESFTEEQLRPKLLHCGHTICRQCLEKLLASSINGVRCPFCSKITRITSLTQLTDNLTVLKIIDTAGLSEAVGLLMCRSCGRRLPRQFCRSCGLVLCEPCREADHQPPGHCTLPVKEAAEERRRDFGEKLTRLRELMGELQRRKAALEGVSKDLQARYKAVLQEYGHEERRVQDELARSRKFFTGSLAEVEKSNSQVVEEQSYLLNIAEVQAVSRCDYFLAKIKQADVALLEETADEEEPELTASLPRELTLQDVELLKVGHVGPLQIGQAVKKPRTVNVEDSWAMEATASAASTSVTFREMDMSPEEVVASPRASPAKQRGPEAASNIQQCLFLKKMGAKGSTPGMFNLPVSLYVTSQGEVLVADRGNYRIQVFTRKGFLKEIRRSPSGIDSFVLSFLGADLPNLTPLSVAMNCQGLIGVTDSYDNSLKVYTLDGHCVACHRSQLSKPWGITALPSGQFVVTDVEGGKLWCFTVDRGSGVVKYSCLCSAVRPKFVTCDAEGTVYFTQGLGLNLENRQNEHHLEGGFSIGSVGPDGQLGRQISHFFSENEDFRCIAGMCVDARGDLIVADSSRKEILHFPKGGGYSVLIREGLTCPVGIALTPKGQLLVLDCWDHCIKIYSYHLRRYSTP
UniProt Q96S44: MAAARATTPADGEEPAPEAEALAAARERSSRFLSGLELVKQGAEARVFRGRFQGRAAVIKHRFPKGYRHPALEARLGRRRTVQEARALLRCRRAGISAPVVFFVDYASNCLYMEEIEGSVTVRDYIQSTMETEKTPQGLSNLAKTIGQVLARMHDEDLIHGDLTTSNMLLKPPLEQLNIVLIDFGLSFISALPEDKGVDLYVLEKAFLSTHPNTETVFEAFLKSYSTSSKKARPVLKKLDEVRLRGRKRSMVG
UniProt Q8WVT3: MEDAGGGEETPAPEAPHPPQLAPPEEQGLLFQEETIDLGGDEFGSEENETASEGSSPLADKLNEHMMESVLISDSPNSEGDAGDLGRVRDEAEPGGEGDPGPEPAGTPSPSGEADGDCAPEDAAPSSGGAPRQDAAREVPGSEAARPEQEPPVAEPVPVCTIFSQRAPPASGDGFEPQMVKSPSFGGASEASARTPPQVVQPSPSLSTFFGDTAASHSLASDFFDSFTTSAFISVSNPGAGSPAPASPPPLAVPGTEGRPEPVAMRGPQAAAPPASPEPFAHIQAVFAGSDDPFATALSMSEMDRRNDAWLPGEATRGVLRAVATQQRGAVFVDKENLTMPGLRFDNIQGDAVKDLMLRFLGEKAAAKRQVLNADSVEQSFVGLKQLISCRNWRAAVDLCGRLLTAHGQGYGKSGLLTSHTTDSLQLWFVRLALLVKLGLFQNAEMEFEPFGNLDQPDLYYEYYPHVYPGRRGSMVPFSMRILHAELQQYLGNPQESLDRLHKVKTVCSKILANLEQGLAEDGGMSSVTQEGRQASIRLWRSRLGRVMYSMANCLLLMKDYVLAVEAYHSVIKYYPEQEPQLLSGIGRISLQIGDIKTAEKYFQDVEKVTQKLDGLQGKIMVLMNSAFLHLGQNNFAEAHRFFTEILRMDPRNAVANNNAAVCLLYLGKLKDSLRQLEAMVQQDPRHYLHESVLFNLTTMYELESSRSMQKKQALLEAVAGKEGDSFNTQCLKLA
UniProt P13693: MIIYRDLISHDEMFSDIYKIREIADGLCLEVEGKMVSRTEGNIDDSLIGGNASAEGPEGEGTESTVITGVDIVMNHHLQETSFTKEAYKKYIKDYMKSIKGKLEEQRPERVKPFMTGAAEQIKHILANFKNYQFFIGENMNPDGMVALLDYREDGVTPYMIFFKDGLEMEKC
UniProt Q9Y5R8, whole entry, looked up: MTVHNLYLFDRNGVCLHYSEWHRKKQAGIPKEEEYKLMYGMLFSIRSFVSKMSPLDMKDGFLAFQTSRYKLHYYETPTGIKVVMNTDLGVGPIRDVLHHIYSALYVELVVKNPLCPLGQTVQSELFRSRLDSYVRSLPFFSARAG
UniProt Q16890: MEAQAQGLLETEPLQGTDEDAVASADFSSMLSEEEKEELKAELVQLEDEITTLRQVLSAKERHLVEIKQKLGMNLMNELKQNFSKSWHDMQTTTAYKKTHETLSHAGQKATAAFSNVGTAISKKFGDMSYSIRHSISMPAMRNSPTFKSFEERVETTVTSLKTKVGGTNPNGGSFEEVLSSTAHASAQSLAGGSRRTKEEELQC
UniProt Q12931: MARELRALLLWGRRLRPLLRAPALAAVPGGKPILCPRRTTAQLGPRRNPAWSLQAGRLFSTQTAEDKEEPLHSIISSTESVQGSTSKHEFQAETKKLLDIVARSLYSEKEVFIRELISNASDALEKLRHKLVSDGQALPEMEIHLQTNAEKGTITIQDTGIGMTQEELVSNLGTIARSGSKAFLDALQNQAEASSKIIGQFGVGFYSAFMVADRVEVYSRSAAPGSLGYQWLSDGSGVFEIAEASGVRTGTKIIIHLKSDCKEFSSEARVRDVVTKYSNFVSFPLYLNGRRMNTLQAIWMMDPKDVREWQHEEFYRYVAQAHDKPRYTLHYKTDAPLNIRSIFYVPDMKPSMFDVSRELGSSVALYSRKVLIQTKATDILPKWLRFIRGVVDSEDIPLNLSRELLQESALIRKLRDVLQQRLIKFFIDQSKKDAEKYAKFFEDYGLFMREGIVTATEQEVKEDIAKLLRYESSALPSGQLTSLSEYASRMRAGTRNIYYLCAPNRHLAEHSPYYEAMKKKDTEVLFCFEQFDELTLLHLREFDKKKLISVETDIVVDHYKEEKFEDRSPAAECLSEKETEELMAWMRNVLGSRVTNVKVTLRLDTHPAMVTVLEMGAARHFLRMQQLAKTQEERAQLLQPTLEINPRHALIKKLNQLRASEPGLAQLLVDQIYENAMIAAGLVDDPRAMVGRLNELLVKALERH
UniProt O94826, whole entry, looked up: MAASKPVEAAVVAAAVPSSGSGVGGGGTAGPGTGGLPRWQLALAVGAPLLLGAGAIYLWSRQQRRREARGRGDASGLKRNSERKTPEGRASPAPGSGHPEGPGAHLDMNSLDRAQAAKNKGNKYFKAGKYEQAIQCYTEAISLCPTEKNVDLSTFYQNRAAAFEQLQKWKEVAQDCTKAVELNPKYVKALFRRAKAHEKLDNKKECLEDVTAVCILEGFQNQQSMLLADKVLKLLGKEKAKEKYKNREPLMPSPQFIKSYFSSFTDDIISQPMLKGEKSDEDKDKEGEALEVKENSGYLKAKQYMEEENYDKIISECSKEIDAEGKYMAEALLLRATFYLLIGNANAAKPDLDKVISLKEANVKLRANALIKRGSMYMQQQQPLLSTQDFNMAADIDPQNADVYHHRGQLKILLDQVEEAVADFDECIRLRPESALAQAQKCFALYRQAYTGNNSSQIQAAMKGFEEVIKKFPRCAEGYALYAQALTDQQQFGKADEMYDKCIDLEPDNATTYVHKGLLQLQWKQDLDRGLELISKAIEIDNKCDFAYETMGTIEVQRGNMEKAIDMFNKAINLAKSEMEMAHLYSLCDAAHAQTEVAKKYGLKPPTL
UniProt Q9BQ61: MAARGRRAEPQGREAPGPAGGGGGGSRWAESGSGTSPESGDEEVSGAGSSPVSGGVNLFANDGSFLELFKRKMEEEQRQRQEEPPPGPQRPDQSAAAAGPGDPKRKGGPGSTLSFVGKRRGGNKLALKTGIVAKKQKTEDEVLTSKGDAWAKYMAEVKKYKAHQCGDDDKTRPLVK
UniProt Q9NS69: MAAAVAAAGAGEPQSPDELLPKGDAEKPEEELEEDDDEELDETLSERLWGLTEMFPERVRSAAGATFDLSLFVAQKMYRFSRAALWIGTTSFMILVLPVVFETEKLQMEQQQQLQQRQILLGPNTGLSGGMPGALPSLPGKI
UniProt P51580: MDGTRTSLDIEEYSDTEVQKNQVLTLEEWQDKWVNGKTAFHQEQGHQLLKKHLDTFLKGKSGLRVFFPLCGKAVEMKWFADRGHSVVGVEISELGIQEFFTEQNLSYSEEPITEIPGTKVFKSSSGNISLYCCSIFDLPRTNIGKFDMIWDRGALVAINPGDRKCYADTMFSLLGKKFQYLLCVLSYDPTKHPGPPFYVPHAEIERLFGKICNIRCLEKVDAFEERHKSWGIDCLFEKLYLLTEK
UniProt P29144: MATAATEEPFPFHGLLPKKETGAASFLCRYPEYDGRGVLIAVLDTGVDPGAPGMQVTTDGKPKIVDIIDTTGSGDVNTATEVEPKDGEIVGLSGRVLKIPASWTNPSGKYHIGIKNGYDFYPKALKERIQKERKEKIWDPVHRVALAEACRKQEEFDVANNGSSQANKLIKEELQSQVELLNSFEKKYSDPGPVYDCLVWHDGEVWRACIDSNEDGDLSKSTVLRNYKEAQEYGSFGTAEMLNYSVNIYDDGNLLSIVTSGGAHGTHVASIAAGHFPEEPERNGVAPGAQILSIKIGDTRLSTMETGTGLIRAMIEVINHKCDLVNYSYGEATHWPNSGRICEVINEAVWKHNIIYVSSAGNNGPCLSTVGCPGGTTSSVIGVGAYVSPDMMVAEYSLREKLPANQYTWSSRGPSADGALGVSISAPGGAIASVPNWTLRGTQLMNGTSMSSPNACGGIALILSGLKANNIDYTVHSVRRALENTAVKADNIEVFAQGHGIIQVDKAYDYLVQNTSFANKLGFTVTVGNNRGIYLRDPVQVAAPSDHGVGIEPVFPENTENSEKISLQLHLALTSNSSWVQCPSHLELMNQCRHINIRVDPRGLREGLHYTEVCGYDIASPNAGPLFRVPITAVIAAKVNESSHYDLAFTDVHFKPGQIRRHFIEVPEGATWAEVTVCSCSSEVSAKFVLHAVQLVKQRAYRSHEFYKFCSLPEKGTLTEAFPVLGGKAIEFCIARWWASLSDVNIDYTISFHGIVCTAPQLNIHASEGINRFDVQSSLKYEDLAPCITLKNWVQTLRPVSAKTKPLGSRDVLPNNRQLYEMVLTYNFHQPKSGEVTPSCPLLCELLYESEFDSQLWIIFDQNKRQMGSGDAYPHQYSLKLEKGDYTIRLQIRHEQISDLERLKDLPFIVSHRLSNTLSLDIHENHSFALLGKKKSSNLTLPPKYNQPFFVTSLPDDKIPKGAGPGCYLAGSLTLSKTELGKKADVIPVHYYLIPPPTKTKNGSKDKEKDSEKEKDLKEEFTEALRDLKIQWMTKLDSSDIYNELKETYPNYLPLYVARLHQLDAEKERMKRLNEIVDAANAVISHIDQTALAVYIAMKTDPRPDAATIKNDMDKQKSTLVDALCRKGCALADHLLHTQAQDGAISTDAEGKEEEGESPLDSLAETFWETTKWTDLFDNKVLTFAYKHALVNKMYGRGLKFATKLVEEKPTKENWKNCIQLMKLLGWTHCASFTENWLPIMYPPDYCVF

Legend:
Assay in all cases: log2 fold change, soluble protein after heating vs DMSO (PISA); higher = thermal stabilisation; K562 cells, 10 uM, 30 min; active = over 0.2 and 3.5 SD of the protein, either way, in both replicates (recomputed)
[1] = compound: CN1CCN(CCOc2cc(OC3CCOCC3)c3c(Nc4c(Cl)ccc5c4OCO5)ncnc3c2)CC1 [saracatinib]
Method in brief: (§1)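 Quantification of soluble protein used TMTpro 16plex LC-MS/MS, with channel sums equalised. Samples were the supernatant after 21,000xg for 90 min of pooled aliquots from K562 cells (2×10^6 cells/mL) treated with 10 μM compound for 30 min, heated for 3 min over 48°C-58°C, and extracted in PBS with 0.5% NP-40 at 4°C. Values, from duplicates, describe thermal stability against control samples on a log2 fold-change scale.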

[2] = compound: CN1CCN(c2nc(C3=C(c4c[nH]c5ccccc45)C(=O)NC3=O)c3ccccc3n2)CC1 [sotrastaurin]
Method in brief: as §1

[3] = compound: CN1CC[C@H](c2c(O)cc(O)c3c(=O)cc(-c4ccccc4Cl)oc23)[C@H](O)C1 [alvocidib]
Method in brief: as §1

[4] = compound: CN1CCc2c(c3ccccc3n2Cc2ccc(C(=O)NO)cc2)C1 [Tubastatin A]
Method in brief: as §1

[5] = compound: CNC(=O)C1=CC=CC=C1NC2=NC(=NC=C2Cl)NC3=C(C=C(C=C3)N4CCOCC4)OC
Method in brief: as §1

[6] = compound: CNC(=O)c1ccc(Nc2ncc(C(F)(F)F)c(NCc3nccnc3N(C)S(C)(=O)=O)n2)cc1 [defactinib]
Method in brief: as §1

[7] = compound: CNCc1ccc(-c2[nH]c3cc(F)cc4c3c2CCNC4=O)cc1 [rucaparib]
Method in brief: as §1

[8] = compound: CNc1nc(-c2ccc3c(N)n[nH]c3c2)cc(N2C[C@@H](C(=O)NC3CCCCC3)CC[C@H]2C)n1
Method in brief: as §1

[9] = compound: COC(=O)N[C@@H](C)CNc1nccc(-c2cn(C(C)C)nc2-c2cc(Cl)cc(NS(C)(=O)=O)c2F)n1 [encorafenib]
Method in brief: as §1

[10] = compound: COC(=O)[C@H](CCSC)NC(=O)C1=C(C=C(C=C1)NC[C@H](CS)N)C2=CC=CC=C2
Method in brief: as §1

Measured: log2 fold change

TRIM33 (UniProt Q9UPN9)
inactive: [1] -0.164 | [2] -0.399 | [3] -0.062 | [4] 0.05 | [5] 0.063 | [6] -0.09 | [7] -0.03 | [8] 0.012 | [9] -0.008 | [10] -0.22

TRAPPC5 (UniProt Q8IUR0)
inactive: [1] -0.072 | [2] -0.086 | [3] -0.06 | [4] 0.033 | [5] 0.01 | [6] -0.052 | [7] -0.011 | [8] 0.07 | [9] 0.054 | [10] -0.004

TP53I3 (UniProt Q53FA7)
inactive: [1] -0.04 | [2] -0.004 | [3] -0.009 | [4] -0.023 | [5] -0.04 | [6] -0.021 | [7] 0.01 | [8] -0.011 | [9] -0.055 | [10] 0.112

TPX2 (UniProt Q9ULW0)
inactive: [1] 0.03 | [2] -0.022 | [3] 0.04 | [4] 0.027 | [5] 0.013 | [6] 0.062 | [7] 0.053 | [8] -0.028 | [9] 0 | [10] 0.046

TRIM11 (UniProt Q96F44)
inactive: [1] -0.004 | [2] -0.054 | [3] -0.088 | [4] 0.104 | [5] -0.08 | [6] -0.063 | [7] 0.061 | [8] -0.128 | [9] 0.003 | [10] -0.035

TRAF6 (UniProt Q9Y4K3)
inactive: [1] -0.007 | [2] -0.009 | [3] -0.071 | [4] -0.03 | [5] 0.014 | [6] -0.145 | [7] -0.074 | [8] -0.032 | [9] -0.051 | [10] 0.09

TRIP4 (UniProt Q15650)
inactive: [1] -0.041 | [2] -0.115 | [3] -0.035 | [4] -0.026 | [5] -0.019 | [6] -0.092 | [7] 0.12 | [8] 0.041 | [9] 0.02 | [10] -0.041

TRMT6 (UniProt Q9UJA5)
inactive: [1] -0.069 | [2] 0.04 | [3] 0.187 | [4] 0.011 | [5] -0.049 | [6] 0.057 | [7] 0.193 | [8] 0.04 | [9] 0.027 | [10] 0.017

TRIM32 (UniProt Q13049)
inactive: [1] 0.091 | [2] 0.142 | [3] -0.005 | [4] -0.086 | [5] 0.038 | [6] 0.039 | [7] 0.014 | [8] -0.056 | [9] -0.044 | [10] 0.09

TP53RK (UniProt Q96S44)
inactive: [1] 0.008 | [2] 0.029 | [3] -0.018 | [4] -0.025 | [5] -0.013 | [6] 0.028 | [7] -0.028 | [8] -0.027 | [9] 0.018 | [10] -0.011

TRMT112 (UniProt Q9UI30)
inactive: [1] -0.073 | [2] 0.019 | [3] -0.043 | [4] -0.05 | [5] -0.03 | [6] -0.116 | [7] 0.016 | [8] 0.016 | [9] -0.029 | [10] -0.073

TRAPPC12 (UniProt Q8WVT3)
inactive: [1] -0.095 | [2] -0.073 | [3] -0.105 | [4] 0.034 | [5] -0.044 | [6] -0.039 | [7] 0.033 | [8] -0.003 | [9] -0.051 | [10] -0.009

TPT1 (UniProt P13693)
inactive: [1] -0.013 | [2] -0.044 | [3] -0.049 | [4] 0.036 | [5] 0.032 | [6] -0.069 | [7] 0.001 | [8] 0.042 | [9] -0.029 | [10] -0.015

TRAPPC1 (UniProt Q9Y5R8)
inactive: [1] -0.016 | [2] 0.039 | [3] -0.059 | [4] 0.023 | [5] -0.047 | [6] -0.059 | [7] -0.023 | [8] 0.049 | [9] 0 | [10] 0.042

TOR1AIP2 (UniProt Q8NFQ8)
inactive: [1] 0.012 | [2] -0.032 | [3] 0.014 | [4] 0.03 | [5] 0.033 | [6] 0.023 | [7] -0.032 | [8] -0.019 | [9] 0.015 | [10] -0.02

TRIP6 (UniProt Q15654)
inactive: [1] 0.028 | [2] -0.023 | [3] 0.016 | [4] -0.011 | [5] -0.041 | [6] -0.014 | [7] -0.012 | [8] -0.036 | [9] -0.029 | [10] 0.01

TPD52L1 (UniProt Q16890)
inactive: [1] 0.034 | [2] -0.024 | [3] -0.042 | [4] 0.032 | [5] -0.034 | [6] -0.031 | [7] -0.004 | [8] -0.022 | [9] -0.02 | [10] 0.021

TRAP1 (UniProt Q12931)
inactive: [1] 0.03 | [2] 0.028 | [3] -0.018 | [4] -0.041 | [5] -0.003 | [6] 0 | [7] -0.007 | [8] -0.022 | [9] -0.022 | [10] 0.019

TRPV2 (UniProt Q9Y5S1)
inactive: [1] 0.082 | [2] 0.041 | [3] -0.019 | [4] -0.018 | [5] -0.001 | [6] -0.017 | [7] -0.028 | [8] -0.075 | [9] -0.003 | [10] -0.052

TOMM70 (UniProt O94826)
inactive: [1] -0.018 | [2] -0.028 | [3] -0.063 | [4] -0.02 | [5] 0.02 | [6] -0.03 | [7] 0.014 | [8] 0.051 | [9] 0.051 | [10] -0.001

TRIR (UniProt Q9BQ61)
inactive: [1] 0.019 | [2] 0.039 | [3] 0.022 | [4] 0.023 | [5] -0.05 | [6] 0.009 | [7] -0.01 | [8] -0.044 | [9] -0.046 | [10] 0.09

TOLLIP (UniProt Q9H0E2)
inactive: [1] -0.061 | [2] -0.056 | [3] -0.168 | [4] 0.003 | [5] 0.027 | [6] -0.063 | [7] -0.057 | [8] 0.001 | [9] -0.035 | [10] -0.068

TRIM25 (UniProt Q14258)
inactive: [1] -0.084 | [2] -0.112 | [3] 0.077 | [4] 0.027 | [5] 0.042 | [6] 0.133 | [7] 0.33 | [8] 0.066 | [9] 0.144 | [10] -0.092

TPM1 (UniProt H7BYY1)
inactive: [1] 0.061 | [2] 0.05 | [3] 0.014 | [4] -0.072 | [5] -0.018 | [6] -0.005 | [7] 0 | [8] -0.03 | [9] -0.043 | [10] -0.139

TOMM22 (UniProt Q9NS69)
inactive: [1] 0.073 | [2] 0.016 | [3] 0.03 | [4] -0.039 | [5] -0.018 | [6] -0.053 | [7] -0.044 | [8] -0.045 | [9] -0.007 | [10] 0.02

TSC22D1 (UniProt Q15714)
inactive: [1] -0.034 | [2] -0.028 | [3] -0.068 | [4] 0.013 | [5] 0.029 | [6] 0.006 | [7] -0.012 | [8] -0.07 | [9] -0.013 | [10] -0.011

TPMT (UniProt P51580)
inactive: [1] 0.018 | [2] 0.006 | [3] -0.001 | [4] -0.046 | [5] 0.027 | [6] -0.052 | [7] -0.043 | [8] -0.006 | [9] 0 | [10] -0.06

TPP2 (UniProt P29144)
inactive: [1] -0.218 | [2] -0.181 | [3] 0.126 | [4] 0.108 | [5] -0.094 | [6] 0.219 | [7] 0.175 | [8] 0.11 | [9] 0.182 | [10] 0

Two neighbouring records already listed, quoted:
TSC22D1 (UniProt Q15714)
inactive: [1] -0.034 | [2] -0.028 | [3] -0.068 | [4] 0.013 | [5] 0.029 | [6] 0.006 | [7] -0.012 | [8] -0.07 | [9] -0.013 | [10] -0.011

TPMT (UniProt P51580)
inactive: [1] 0.018 | [2] 0.006 | [3] -0.001 | [4] -0.046 | [5] 0.027 | [6] -0.052 | [7] -0.043 | [8] -0.006 | [9] 0 | [10] -0.06

(list continues)

TPM3 isoform 4 (UniProt P06753)
inactive: [1] 0.037 | [2] 0.029 | [3] 0.068 | [4] -0.028 | [5] -0.1 | [6] 0.028 | [7] -0.047 | [8] -0.061 | [9] -0.001 | [10] 0.139

TRMT1 (UniProt Q9NXH9)
inactive: [1] 0.031 | [2] 0.015 | [3] 0.016 | [4] -0.036 | [5] -0.033 | [6] 0.004 | [7] -0.038 | [8] -0.021 | [9] -0.03 | [10] 0.007
